Hit rate of the full screen: of about 350,000 compounds, about 220 (0.063%) were called active. Inconclusive means that the source gave no clear call. Such entries were picked first, then a sample of the others. Calls come from the whole dose curve; as a rule, active = well fitted activation curve with a large enough effect; inconclusive = small, poorly fitted or top-dose-only effect; inactive = no such curve, though single readings can be large or run the other way. A potency beside an inconclusive call is a rough fit, not a confirmed value.
Test: qHTS for Activators of Integrin-Mediated Alleviation for Muscular Dystrophy; note: nearly all actives have a fitted effect of over 60% in size
Conditions: alpha7betagal myoblasts, beta-gal FDG fluorescence, 48 h; series mostly up to 38.3 µM
Outline: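 Alpha7betagal+/- myoblasts (passage 13) were plated 16-24 hr, then exposed to compounds (1:260 dilution of DMSO stock) for 48 hours at 37C. After MPER lysis, β-galactosidase reporter activity was read as FDG fluorescence (ex 480/em 540) after 30 minutes.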
Potency is the fitted concentration of half-maximal effect.

Potency, inactive:
Cc1csc(NC(=O)CCNS(=O)(=O)c2ccc3c(c2)c(=O)n(C)c(=O)n3C)n1
COc1ccc(CCNC(=O)CNC(=O)c2ccccc2Br)cc1OC
COc1ccc(CCC(=O)N2CCN(S(=O)(=O)c3ccc4ccccc4c3)CC2)cc1
Cc1ccc(C(=O)OCC(=O)Nc2c(Cl)cc(S(N)(=O)=O)cc2Cl)o1
COC(=O)c1cc2nc(-c3ccccc3)cc(C)n2n1
O=C(O)c1ccccc1-c1nc(-c2ccccc2)c(-c2ccccc2)[nH]1
CC1CCN(CCOCCSc2ccc(Cl)cc2)CC1
COC(=O)/C(=N/Nc1ccccc1Cl)Sc1nnc(C(O)c2ccccc2)n1-c1ccccc1 (stereo not given)
Cc1cc(Nc2cccc(Cl)c2Cl)n2ncnc2n1
Cc1c(NC(=O)CSc2nnc3c4ccccc4n(CCc4ccccc4)c3n2)c(=O)n(-c2ccccc2)n1C
OCC1(CCCc2ccccc2)CCN(C2CCC2)CC1
COc1cccc(-c2nc(-c3ccccc3)nc(N3CCN(C)CC3)c2C#N)c1
CCOc1ccc(-c2cc(C(=O)N/N=C(\C)c3cccnc3)c3ccccc3n2)c(OCC)c1
CC(C)Oc1ccc(CSC(=N)N)cc1
CCN(CC)S(=O)(=O)c1cccc2c(N(C)C)cccc12
O=C(Nc1cccc2ccccc12)c1ccccc1
COc1ccc(NC(=O)CC2C(=O)N(C)C(=S)N2CCc2ccc(F)cc2)cc1 (stereo not given)
COc1cc(CNC[C@H]2O[C@@H](n3ccc(N)nc3=O)[C@H](O)[C@@H]2O)ccc1OCc1ccc(C)cc1
COc1cc2c(cc1OC)CN(Cc1ccc(C)cc1)CC2
CCOC(=O)CNS(=O)(=O)c1cc(-c2nn(C)c(=O)c3ccccc23)ccc1C
CC(C)N(C)CCOC(=O)c1ccccc1Br
CCC1CCCCN1C(=O)COc1c(Br)cc(Br)c2cccnc12 (stereo not given)
Cc1cc(-c2ccco2)n(CC(=O)NCCCc2ccccc2)n1
CCCCOC(=O)c1ccc(N=Nc2c(C)c(C#N)c(O)[nH]c2=O)cc1

Potency, inconclusive:
O=C(CC1NCCN(Cc2ccccc2)C1=O)Nc1ccc(Cl)cc1 (stereo not given) 28.2 µM [activator, single point]
O=C(COc1ccc([N+](=O)[O-])cc1)Nc1ccc2c(c1)CCC2 0.501 µM [activator, full curve, poor fit]
CC(=O)C1=C(O)C(=O)N(Cc2cccnc2)C1c1ccc(Cl)cc1Cl (stereo not given) 5.01 µM [activator, single point]
COc1ccc(S(=O)(=O)n2c([N+](=O)[O-])cnc2C)cc1OC 3.55 µM [activator, single point]
CC(=O)Nc1ccc(NC(=O)CSc2ccc3nnc(-c4cccnc4)n3n2)cc1 28.2 µM [activator, single point]
O=c1[nH]c(/C=C\c2ccc(O)c(O)c2)nc(O)c1[N+](=O)[O-] 0.501 µM [activator, full curve, poor fit]
CC1CCCCC1NC(=O)COC(=O)c1ccc([N+](=O)[O-])o1 (stereo not given) 2.82 µM [activator, single point]
Cc1ccccc1NC(=O)Cn1c(=O)oc2ccccc21 0.501 µM [activator, full curve, poor fit]
COc1ccc(C2C(C(N)=O)=C(C)Nc3nc(-c4cccc(Cl)c4)nn32)cc1OC (stereo not given) 28.2 µM [activator, single point]
COC(=O)c1cn(C(=O)c2ccc(OC)c(OC)c2)c2ccccc12 4.47 µM [activator, single point]
COc1ccc(CCNC(=O)CSCc2c(F)cccc2Cl)cc1OC 5.01 µM [activator, single point]
COc1cc(NC(=O)COc2ccc(C)c(C)c2)ccc1NC(=O)c1ccco1 28.2 µM [activator, single point]
CC(OCCN1CCCC1)(c1ccc(F)cc1)c1ccc(F)cc1 12.6 µM [activator, single point]
CCN1C(=O)Nc2cccc3cccc1c23 5.62 µM [activator, partial curve, poor fit]
N/C(=N\OC(=O)c1ccc(F)cc1)c1cccc([N+](=O)[O-])c1 28.2 µM [activator, single point]
COCCCNC(=O)c1cn(CCOC)c(=O)c2c1c1ccccc1n2C 28.2 µM [activator, single point]
COc1cccc(CNC(=O)CCC2CCCN(C(=O)c3cscn3)C2)c1 (stereo not given) 28.2 µM [activator, single point]
COCC(C)n1c(C)cc(C(=O)CSc2nnnn2-c2ccc(O)cc2)c1C (stereo not given) 28.2 µM [activator, partial curve, poor fit]
O=C(Nc1cccc(Cl)c1)c1cccnn1 3.16 µM [activator, single point]
CC1CCc2c(sc(NC(=O)C3c4ccccc4Oc4ccccc43)c2C(N)=O)C1 (stereo not given) 5.01 µM [activator, single point]
CC(=O)N1CCN(c2ncnc3ccccc23)CC1 22.4 µM [activator, partial curve, poor fit]
NC(=O)c1ccccc1NC(=O)C(c1ccccc1)c1ccccc1 1.41 µM [activator, single point]
COc1ccc(C(=O)CSc2nnc(-c3cc(C)on3)o2)cc1 28.2 µM [activator, single point]
COc1ccc(Cl)cc1-n1c(=S)sc2c(=O)n(-c3ccc(F)cc3)c(SCC(=O)O)nc21 28.2 µM [activator, single point]
CCc1c(C(=O)NCCc2cccc(C)c2)[nH]c(C)c1C(C)=O 0.398 µM [activator, partial curve, poor fit]
Nc1cc(C(=O)N/N=C/c2cccc([N+](=O)[O-])c2)n[nH]c1=O 7.94 µM [activator, partial curve, poor fit]
Cc1cccc(NS(=O)(=O)c2c(C(=O)N3CCCC3)c(C)n(C)c2C)c1 2.82 µM [activator, partial curve, poor fit]
COCCn1c(=NC(=O)CCS(=O)(=O)c2ccccc2)sc2cc(C(=O)OC)ccc21 28.2 µM [activator, single point]
O=C1CC(c2ccccc2)=NN1c1nc(-c2ccccc2)cs1 5.01 µM [activator, single point]
O=C1Cc2cc(S(=O)(=O)NCc3ccccc3Cl)cc3c2N1CCC3 2.82 µM [activator, single point]
CCc1ccc2nc(Nc3ncc(C(C)=O)c(C)n3)nc(C)c2c1 11.2 µM [activator, single point]
O=c1[nH][nH]c(=O)n1-c1ccccc1 2 µM [activator, partial curve, poor fit]
C/C(Cn1nc([N+](=O)[O-])cc1C)=N\NC(=O)COc1ccccc1[N+](=O)[O-] 5.01 µM [activator, single point]
COC(=O)c1ccc(Oc2nc(Nc3ccc(F)cc3)nc(N3CCCC3)n2)cc1 10 µM [activator, partial curve, poor fit]
CS(=O)(=O)N1CCc2cc(C(=O)Nc3ccccc3Br)ccc21 28.2 µM [activator, single point]
Cn1c(SCC(=O)NC(=O)NCc2ccco2)nnc1-c1ccccc1 1.58 µM [activator, partial curve, poor fit]
CC(C)c1ccc(CCNC(=O)CCNS(=O)(=O)c2ccc(Br)cc2)cc1 0.794 µM [activator, single point]
COc1cc2c(=O)n(CCC(=O)NCC3CCCO3)c(=O)n(CC(=O)Nc3ccc(C)cc3C)c2cc1OC (stereo not given) 4.47 µM [activator, single point]
CC12CN3CC(C)(CN(C1)C3c1ccc3c(c1)OCO3)C2O (stereo not given) 12.6 µM [activator, single point]
C/C(=N\NC(=O)c1ccc2ccccc2c1)c1cccnc1 28.2 µM [activator, single point]
CC(C)n1nc(CC(=O)O)c2ccccc2c1=O 22.4 µM [activator, partial curve, poor fit]
COc1ccc(S(=O)(=O)N2CCC(C(=O)NCCc3c[nH]c4ccccc34)CC2)cc1 2.24 µM [activator, full curve, poor fit]
COc1ccccc1CNC(=O)CS(=O)(=O)c1ccccc1 28.2 µM [activator, partial curve, poor fit]
O=C(CSc1nnc(CNC(=O)c2ccco2)o1)Nc1cccc(F)c1 5.01 µM [activator, single point]
Cc1cc(=O)n2[nH]c(SCc3ccc(Cl)cc3)nc2n1 22.4 µM [activator, single point]
CCOC(=O)C1CCN(C(=O)c2cc3ccccc3oc2=O)CC1 11.2 µM [activator, single point]

3 entries drawn at random from the list so far:
Potency, inconclusive:
O=c1[nH]c(/C=C\c2ccc(O)c(O)c2)nc(O)c1[N+](=O)[O-] 0.501 µM [activator, full curve, poor fit]
COc1cc2c(=O)n(CCC(=O)NCC3CCCO3)c(=O)n(CC(=O)Nc3ccc(C)cc3C)c2cc1OC (stereo not given) 4.47 µM [activator, single point]
C/C(Cn1nc([N+](=O)[O-])cc1C)=N\NC(=O)COc1ccccc1[N+](=O)[O-] 5.01 µM [activator, single point]

From PubChem BioAssay AID624291 (National Center for Advancing Translational Sciences (NCATS), 2012)
